Measured values: the supplement of paper PMC3334620
Whole data set: some 33,000 sequences, median “E-score (-0.5 to 0.5)” near -0.016, cut for the highest 2% near 0.3. The list shows a part of the results.

molecular target: T1, Yer184c (UniProt P39961); assay: PBM E-score (8-mer binding enrichment) (E-score (-0.5 to 0.5)); higher = stronger / more preferred TF binding; conditions: protein concentration: 100 nM; construct: GST-full length
T1 sequence: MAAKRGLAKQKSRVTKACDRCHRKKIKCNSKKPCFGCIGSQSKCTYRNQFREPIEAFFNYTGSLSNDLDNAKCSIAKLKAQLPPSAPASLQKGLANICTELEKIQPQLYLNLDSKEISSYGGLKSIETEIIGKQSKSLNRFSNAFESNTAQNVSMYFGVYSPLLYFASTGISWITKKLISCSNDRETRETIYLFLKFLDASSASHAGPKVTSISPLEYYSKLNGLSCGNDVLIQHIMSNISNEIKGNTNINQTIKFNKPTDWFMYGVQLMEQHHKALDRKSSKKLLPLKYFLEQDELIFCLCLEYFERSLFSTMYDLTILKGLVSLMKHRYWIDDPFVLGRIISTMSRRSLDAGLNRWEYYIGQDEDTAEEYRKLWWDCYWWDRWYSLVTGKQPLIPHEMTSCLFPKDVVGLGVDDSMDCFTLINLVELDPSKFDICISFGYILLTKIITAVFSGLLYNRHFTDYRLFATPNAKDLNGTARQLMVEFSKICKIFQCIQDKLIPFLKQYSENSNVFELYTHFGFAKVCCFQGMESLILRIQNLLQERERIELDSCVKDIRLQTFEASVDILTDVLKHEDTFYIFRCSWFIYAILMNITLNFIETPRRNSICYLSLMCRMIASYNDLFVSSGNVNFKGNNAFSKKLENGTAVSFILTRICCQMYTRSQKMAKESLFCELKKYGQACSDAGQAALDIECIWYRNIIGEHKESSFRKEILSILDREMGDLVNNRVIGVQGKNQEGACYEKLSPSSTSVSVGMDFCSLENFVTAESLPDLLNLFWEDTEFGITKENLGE
Method: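 Universal 'all 10-mer' protein binding microarrays (Agilent AMADID 015681) probed with GST-tagged S. cerevisiae TFs (full-length or DBD) made by in vitro transcription/translation (PURExpress), about 100-200 nM. Bound TF was detected with fluorescent anti-GST. Each ungapped 8-mer (which stands for itself and its reverse complement) is scored by the PBM enrichment score (E-score), a modified Wilcoxon-Mann-Whitney statistic from -0.5 to +0.5, computed with the Universal PBM Analysis Suite. Scale: above 0.35 generally sequence-specific binding.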

| Sequence | PBM E-score |
| --- | --- |
| ATACTATA | 0.125 |
| AAAATCGA | 0.0696 |
| GCGTCTGA | -0.0195 |
| ATGATGGG | -0.267 |
| AACCGTGT | 0.0684 |
| AGTGCCGG | 0.337 |
| GTTTGCCA | -0.0315 |
| AAACCCAT | 0.0274 |
| ACGAGACG | -0.123 |
| AGCTTGAT | -0.0956 |
| CACTAAGC | -0.132 |
| ATAGCAAG | -0.0366 |
| GCGTCAAC | -0.17 |
| GTTAGTCA | 0.00257 |
| CACGCAAG | 0.0177 |
| ACTGCACC | 0.0615 |
| CGGGGACA | -0.0645 |
| TAGTCAAA | 0.0998 |
| CATTGAGC | -0.0551 |
| ACGGTCCT | -0.193 |
| CGAAGAGC | 0.12 |
| CGATCTTA | -0.0292 |
| TTACGGAA | 0.355 |
| CTTAAGAC | 0.0397 |
| CCGCGTAA | 0.011 |

| Sequence | PBM E-score |
| --- | --- |
| ATGCGCTA | -0.125 |
| CCCACGTC | -0.117 |
| AATGAGGG | -0.254 |
| GACAAAGC | 0.138 |
| CTTGCACA | -0.0667 |
| CGCGGCAG | 0.167 |
| ACTGTTTC | -0.0863 |
| ACCTATCT | -0.205 |
| AGCCCGAC | -0.206 |
| GACCCCTA | -0.351 |
| GATCGAGC | 0.18 |
| CAGTTCCG | 0.199 |
| AAATTTGG | -0.0662 |
| ATAAGCGC | -0.137 |
| ATGAGTCC | -0.0586 |
| AGAGCCAT | -0.101 |
| GCCAGTCC | -0.134 |
| CTGCACTC | -0.0866 |
| AGACCCCG | 0.08 |
| AGCTGGTC | -0.113 |
| AACCTATA | 0.15 |
| CGTCTAAG | -0.0836 |
| ACTGTCCA | -0.0181 |
| CCAAGACG | -0.187 |
| CTTGTCGA | -0.0619 |

| Sequence | PBM E-score |
| --- | --- |
| AGCCTAAG | -0.178 |
| ACCTGGAT | -0.249 |
| TATCGATA | 0.0839 |
| GGAGTAGA | 0.00565 |
| ACGCGTAT | 0.0402 |
| ATCGACAG | -0.0255 |
| GTTGTCTA | 0.0693 |
| CACACAGA | 0.14 |
| CCTCGACC | -0.0725 |
| CTCAGCGA | 0.00511 |
| CCGGATGA | 0.335 |
| AAGCGTGA | -0.0764 |
| AGCAAGCC | -0.0802 |
| CAAACGAA | 0.0711 |
| ATGAGGTC | -0.107 |
| AGTGGTCA | -0.0391 |
| CCACCCGG | 0.129 |
| AACAAACT | 0.277 |
| ACTCAAAG | -0.0425 |
| CGTCGAAC | -0.125 |
| AGACAAAC | 0.0187 |
| CTAGTGGC | -0.242 |
| AACAGGTA | -0.105 |
| AATAGGCC | -0.0377 |
| ACATGCAG | -0.0848 |

| Sequence | PBM E-score |
| --- | --- |
| CTACCGAG | 0.017 |
| CTTTAATA | 0.245 |
| GCACCTTA | 0.00446 |
| CAGGATTC | -0.107 |
| AGCGCAGG | -0.17 |
| CGCGAAGC | 0.091 |
| CGATCACG | 0.165 |
| CGGCCACG | -0.0401 |
| ACAGTCTC | -0.207 |
| CGGACTAC | 0.139 |
| CAGCAGGC | 0.117 |
| ACTTAGAG | -0.224 |
| CTCGCAGA | -0.176 |
| ATCCTACC | -0.127 |
| AGCCGGTG | 0.225 |
| GAGGGTAC | -0.308 |
| AGGTGATC | -0.0596 |
| ACGTCCAT | -0.016 |
| GGAATTGA | 0.143 |
| ACTAATGA | 0.0791 |
| TCCGCTCA | -0.245 |
| ATTGAAAC | 0.141 |
| GGGTTACA | -0.0526 |
| ACGTATTA | 0.141 |
| CACTCGTA | -0.148 |

In another format: entries from further up
Sequence	PBM E-score
ATCCTACC	-0.127
AGCCGGTG	0.225

More results follow.

| Sequence | PBM E-score |
| --- | --- |
| CCCAGTCA | -0.37 |
| CCGGATCC | 0.372 |
| ACCTGAAA | 0.0786 |
| AAGGGAGC | -0.143 |
| ACTTCCGG | 0.335 |
| CAGCGGTC | -0.18 |
| AAGCATGT | -0.0314 |
| GATAAAGC | -0.00053 |
| GTAGTCGA | -0.00551 |
| AGTACATG | -0.0174 |
| ACCTGACA | -0.0586 |
| GGGTGTAC | -0.222 |
| ATTACTGG | -0.0899 |
| ACTATGTG | -0.0741 |
| AAGGAGCA | -0.122 |
| CACAATCC | 0.0651 |
| CTCGACAG | -0.146 |
| ACTCACGA | -0.0488 |
| ATTTTTAG | 0.0507 |
| CTGGTGTC | -0.0649 |
| TCGTCGCA | -0.0269 |
| CCAAACTA | -0.0721 |
| GAGCTGCC | 0.00086 |
| CGGAAAGA | 0.243 |
| AACGAACT | 0.0561 |

| Sequence | PBM E-score |
| --- | --- |
| CCATAACC | -0.184 |
| GACACTGC | -0.103 |
| AAATGTCG | -0.037 |
| AGCCAAAT | 0.119 |
| CCGTCTGC | 0.003 |
| TATTACAA | 0.0425 |
| ACAACGAG | -0.0614 |
| ATGCGGTA | 0.059 |
| CTAGGGGA | -0.319 |
| CAGTCACA | -0.0529 |
| AATCTCAT | -0.032 |
| CTGGATCA | -0.0847 |
| AAATGGCG | -0.0657 |
| CCTACGTA | -0.0164 |
| CGAATTCA | 0.198 |
| TAGAACTA | 0.132 |
| CGGCAATA | 0.29 |
| AGCCAGGC | -0.172 |
| ATGAGGCG | -0.0692 |
| ATCGGTTG | 0.0709 |
| ACGATAGT | -0.0276 |
| CTGGGGGC | -0.339 |
| TGATCACA | 0.0834 |
| AGCAATGA | -0.0481 |
| GGAGTTCA | 0.147 |

| Sequence | PBM E-score |
| --- | --- |
| AGCAACGG | 0.186 |
| AATGCACC | 0.032 |
| CATAGAGC | -0.267 |
| CTGGAAGC | -0.26 |
| AAAGCTAT | 0.149 |
| AATTAACC | 0.167 |
| ATAAGAAT | 0.247 |
| ATACGACA | -0.0307 |
| ACATTACA | -0.0825 |
| ACCAGTAA | 0.195 |
| AAAGGCCA | -0.297 |
| AGCAACGC | 0.0574 |
| ACTGACTC | -0.218 |
| GATCCATA | -0.0186 |
| ACCCGGTA | 0.183 |
| TGCTTGAA | 0.217 |
| GAACGCCA | 0.0016 |
| GAGGTTCC | 0.0805 |
| CCTCTTGC | -0.175 |
| CAAGTGAC | -0.0157 |
| CTGAGGTC | -0.309 |
| CTGGGTTA | -0.115 |

A second format for some results above.
Sequence	PBM E-score
CCCACGTC	-0.117
ACATTACA	-0.0825

Exported tab-delimited: entries from further up.
Sequence	PBM E-score
ACCCGGTA	0.183
TGCTTGAA	0.217
GAACGCCA	0.0016
GAGGTTCC	0.0805
CCTCTTGC	-0.175
CAAGTGAC	-0.0157
CTGAGGTC	-0.309
